# This is one part of the list. Most entries show no effect beyond the scatter of the controls.
# Chains of the proteins cited; added tags and fusions are not shown. Lines headed by an entry give the natural chain unless they say otherwise; changes in a name come on top.
# UniProt B2RRF6: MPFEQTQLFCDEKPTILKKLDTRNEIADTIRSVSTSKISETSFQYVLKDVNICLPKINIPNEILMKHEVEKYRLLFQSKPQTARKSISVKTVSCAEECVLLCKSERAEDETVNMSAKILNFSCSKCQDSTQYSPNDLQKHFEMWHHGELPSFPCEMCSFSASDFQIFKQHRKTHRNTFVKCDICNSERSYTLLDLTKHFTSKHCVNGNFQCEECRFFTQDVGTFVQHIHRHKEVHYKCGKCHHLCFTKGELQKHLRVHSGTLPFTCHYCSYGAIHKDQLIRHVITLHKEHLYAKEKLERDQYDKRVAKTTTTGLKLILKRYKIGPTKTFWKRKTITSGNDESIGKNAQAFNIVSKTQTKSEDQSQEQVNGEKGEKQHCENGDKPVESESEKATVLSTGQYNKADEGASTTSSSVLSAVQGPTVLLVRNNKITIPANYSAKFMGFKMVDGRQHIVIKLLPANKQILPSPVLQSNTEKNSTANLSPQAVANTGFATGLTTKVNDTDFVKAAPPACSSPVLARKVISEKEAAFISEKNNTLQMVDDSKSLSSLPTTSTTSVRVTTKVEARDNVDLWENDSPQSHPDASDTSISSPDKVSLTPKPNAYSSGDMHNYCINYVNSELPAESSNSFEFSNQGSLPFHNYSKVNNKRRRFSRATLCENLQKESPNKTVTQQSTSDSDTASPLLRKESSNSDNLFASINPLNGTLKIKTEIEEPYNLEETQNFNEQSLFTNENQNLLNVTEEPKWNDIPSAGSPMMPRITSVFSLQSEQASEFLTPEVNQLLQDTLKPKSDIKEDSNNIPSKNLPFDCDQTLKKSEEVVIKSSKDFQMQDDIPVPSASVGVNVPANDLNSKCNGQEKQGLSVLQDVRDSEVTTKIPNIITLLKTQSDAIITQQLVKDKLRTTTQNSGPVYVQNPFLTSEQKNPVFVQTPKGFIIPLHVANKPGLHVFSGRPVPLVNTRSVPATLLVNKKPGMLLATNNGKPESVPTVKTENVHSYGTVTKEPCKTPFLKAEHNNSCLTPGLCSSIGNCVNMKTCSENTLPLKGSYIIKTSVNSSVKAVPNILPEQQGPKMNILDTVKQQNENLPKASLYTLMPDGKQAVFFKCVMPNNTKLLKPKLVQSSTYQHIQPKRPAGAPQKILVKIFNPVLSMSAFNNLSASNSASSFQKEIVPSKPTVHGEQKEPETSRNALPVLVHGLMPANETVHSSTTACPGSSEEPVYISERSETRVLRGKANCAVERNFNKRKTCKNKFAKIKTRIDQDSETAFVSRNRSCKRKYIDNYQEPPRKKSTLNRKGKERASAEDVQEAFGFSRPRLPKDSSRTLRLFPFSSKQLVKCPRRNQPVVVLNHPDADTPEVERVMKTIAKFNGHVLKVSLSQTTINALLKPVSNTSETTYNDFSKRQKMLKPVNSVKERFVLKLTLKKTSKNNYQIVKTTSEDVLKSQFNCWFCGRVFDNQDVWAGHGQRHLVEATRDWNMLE
# UniProt B2RQE8: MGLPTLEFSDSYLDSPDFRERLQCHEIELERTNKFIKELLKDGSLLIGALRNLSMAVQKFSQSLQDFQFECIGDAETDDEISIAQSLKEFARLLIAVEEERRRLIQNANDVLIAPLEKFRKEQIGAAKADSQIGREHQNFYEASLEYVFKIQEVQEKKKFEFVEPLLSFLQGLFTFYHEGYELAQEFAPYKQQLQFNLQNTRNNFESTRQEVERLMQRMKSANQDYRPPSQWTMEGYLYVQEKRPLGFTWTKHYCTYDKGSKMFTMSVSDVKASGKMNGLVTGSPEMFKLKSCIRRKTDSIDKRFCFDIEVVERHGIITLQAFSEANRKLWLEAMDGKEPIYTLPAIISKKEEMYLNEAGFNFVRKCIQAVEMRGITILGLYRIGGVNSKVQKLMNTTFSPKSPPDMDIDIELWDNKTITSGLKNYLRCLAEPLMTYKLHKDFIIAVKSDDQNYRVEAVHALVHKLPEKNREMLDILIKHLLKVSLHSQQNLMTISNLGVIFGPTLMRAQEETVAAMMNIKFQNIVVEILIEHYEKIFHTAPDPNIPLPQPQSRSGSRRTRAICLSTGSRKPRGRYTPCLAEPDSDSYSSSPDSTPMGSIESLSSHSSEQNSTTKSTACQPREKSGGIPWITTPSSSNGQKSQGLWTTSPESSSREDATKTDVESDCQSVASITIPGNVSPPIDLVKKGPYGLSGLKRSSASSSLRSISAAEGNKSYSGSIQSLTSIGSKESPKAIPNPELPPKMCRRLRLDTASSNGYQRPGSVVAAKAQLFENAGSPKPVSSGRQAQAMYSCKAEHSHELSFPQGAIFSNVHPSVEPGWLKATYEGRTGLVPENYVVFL
# UniProt A6X8Z5, whole entry: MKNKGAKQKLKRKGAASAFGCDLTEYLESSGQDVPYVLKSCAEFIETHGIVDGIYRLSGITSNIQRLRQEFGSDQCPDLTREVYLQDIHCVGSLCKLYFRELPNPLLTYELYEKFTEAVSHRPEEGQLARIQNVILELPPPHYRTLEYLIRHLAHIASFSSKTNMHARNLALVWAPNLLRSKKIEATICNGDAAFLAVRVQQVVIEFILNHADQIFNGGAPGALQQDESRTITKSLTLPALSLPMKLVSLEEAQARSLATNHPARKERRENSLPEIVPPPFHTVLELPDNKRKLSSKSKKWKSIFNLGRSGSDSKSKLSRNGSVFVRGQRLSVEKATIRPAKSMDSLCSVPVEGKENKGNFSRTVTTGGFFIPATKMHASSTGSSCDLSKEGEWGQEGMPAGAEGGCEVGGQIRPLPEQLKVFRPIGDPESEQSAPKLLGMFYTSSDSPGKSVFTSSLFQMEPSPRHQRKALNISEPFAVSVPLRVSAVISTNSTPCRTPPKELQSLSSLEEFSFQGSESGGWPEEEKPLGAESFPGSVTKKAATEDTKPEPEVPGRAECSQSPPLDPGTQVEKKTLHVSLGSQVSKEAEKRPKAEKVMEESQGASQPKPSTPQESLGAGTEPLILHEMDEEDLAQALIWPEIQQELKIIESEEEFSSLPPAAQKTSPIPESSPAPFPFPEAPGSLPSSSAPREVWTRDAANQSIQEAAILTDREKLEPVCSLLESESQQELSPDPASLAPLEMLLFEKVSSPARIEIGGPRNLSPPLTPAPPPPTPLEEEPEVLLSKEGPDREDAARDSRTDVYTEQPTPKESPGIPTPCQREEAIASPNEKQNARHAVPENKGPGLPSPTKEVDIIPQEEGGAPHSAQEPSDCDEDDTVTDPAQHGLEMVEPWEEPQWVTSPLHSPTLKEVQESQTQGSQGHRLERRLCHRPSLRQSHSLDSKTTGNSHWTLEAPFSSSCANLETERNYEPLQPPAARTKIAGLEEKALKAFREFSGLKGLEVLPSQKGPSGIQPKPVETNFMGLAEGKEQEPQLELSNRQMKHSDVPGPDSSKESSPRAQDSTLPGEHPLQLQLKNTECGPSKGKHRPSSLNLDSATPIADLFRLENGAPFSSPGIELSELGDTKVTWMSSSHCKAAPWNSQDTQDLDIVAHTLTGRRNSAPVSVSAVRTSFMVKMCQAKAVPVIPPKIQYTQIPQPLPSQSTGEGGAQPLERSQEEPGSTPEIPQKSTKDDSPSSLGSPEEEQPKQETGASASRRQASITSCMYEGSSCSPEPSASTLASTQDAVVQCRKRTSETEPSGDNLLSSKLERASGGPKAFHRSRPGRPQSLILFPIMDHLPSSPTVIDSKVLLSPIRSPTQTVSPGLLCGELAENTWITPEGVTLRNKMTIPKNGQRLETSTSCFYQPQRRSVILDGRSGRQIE
# UniProt A2AF53: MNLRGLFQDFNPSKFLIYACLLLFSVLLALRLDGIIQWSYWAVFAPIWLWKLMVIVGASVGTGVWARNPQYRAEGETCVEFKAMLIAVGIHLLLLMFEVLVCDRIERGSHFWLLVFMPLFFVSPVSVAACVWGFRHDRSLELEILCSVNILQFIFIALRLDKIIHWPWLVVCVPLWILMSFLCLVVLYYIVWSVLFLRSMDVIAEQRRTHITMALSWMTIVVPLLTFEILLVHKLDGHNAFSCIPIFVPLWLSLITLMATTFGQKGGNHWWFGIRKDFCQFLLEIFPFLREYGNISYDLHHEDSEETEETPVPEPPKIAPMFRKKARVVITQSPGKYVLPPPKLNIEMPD
# Compound: CN[C@@H]1C[C@H]2O[C@@](C)([C@@H]1OC)n1c3ccccc3c3c4c(c5c6ccccc6n2c5c31)C(=O)NC4 [staurosporine]
# Experiment: log2 fold change of tryptic peptide abundance, ligand vs vehicle (limited proteolysis) (log2 ratio); higher = more trypsin-susceptible (destabilized)
# Details: ligand concentration: 20 uM; sample: mouse liver crude lysate; replicate design: treated separately
row,Target,log2 fold change
1,"UniProt B2RRF6 (peptide sequence: KSEEVVIK, peptide start residue: 815)",-0.316
2,"UniProt B2RQE8 (peptide sequence: VEAVHALVHKLPEKNR, peptide start residue: 456)",0.545
3,"UniProt A6X8Z5 (peptide sequence: TLHVSLGSQVSK, peptide start residue: 576)",0.349
4,"UniProt A2AF53 (peptide sequence: VVITQSPGK, peptide start residue: 328)",-0.152

# From the supplement of paper PMC12819154, “High-throughput peptide-centric local stability assay extends protein–ligand identification to membrane proteins, tissues and bacteria” (Nature Structural & Molecular Biology, 2025)
